At least one peptide structure holds a part that was inferred or is arguable (an end, a ring closure or a residue). Marks after values point to notes of the source that are not given here. Some entries repeat one wording, which the source may state once for all of them. Where no end group is shown, it is not given here.
What was measured:
[1] = test system: human neuroblastoma cells SH-SY5Y; assay: CCK8 proliferation inhibition, SH-SY5Y; type: cell-based; conditions: 48 h
Method: (§1) Incubation was continued for 4 h in a cell incubator, an absorbance was measured at 450 nm, and a proliferation inhibition was calculated. Data was presented as mean±SD, and GraphPad Prism 5.0 statistical software was used. A t-test was used for comparison between two groups, while One-way Anova (Dunnett) was used for comparison among a plurality of groups.

[2] = test system: human cervical cancer cells Hela; assay: CCK8 proliferation inhibition, Hela; type: cell-based; conditions: 48 h
Method: as §1

[3] = test system: human lung cancer A549 cells; assay: Transwell metastasis inhibition, A549; type: cell-based; conditions: 48 h; for Inhibition (%): A549 metastasis
Method: Melanoma, cervical cancer, ovarian cancer, liver cancer, and lung cancer cells were seeded into transwell chambers, with 100 μL per well. Different doses of the HMMW micropeptide and the novel polypeptide HMMW15-51 were added to each chamber as a treatment group, while no drug was added to a blank group. Then, 0.6 mL of a complete culture medium containing 10% FBS was added to the lower chambers of the transwell to stimulate cell metastasis, and the cells were cultured at 5% CO2 and 37° C. for 48 h. The culture solution was discarded from the wells. The cells were fixed with methanol at room temperature for 30 min, stained with 0.1% crystal violet at room temperature for 10 min, and rinsed with clean water. The upper layer nonmetastatic cells were wiped off with a cotton swab. The cells were observed under a microscope, and four fields of view were selected to take photos and count the cells. A metastasis inhibition (MI) was calculated according to a formula: […]
where Ntest represents the number of cell metastases in the treatment group, and Ncontrol represents the number of cell metastases in the blank control group.
Data was presented as mean±SD, and GraphPad Prism 5.0 statistical software was used.

[4] = test system: ovarian cancer cells SKOV3; assay: CCK8 proliferation inhibition, SKOV3 (Example 8); type: cell-based, human; conditions: SKOV3, 100 μM, 48 h, FIG. 12
liver cancer cells Hep3B = assay: CCK8 proliferation inhibition, Hep3B (Example 8); type: cell-based, human; conditions: 100 μM, 48 h, FIG. 13
[5] = test system: human liver cancer cells HCCLM3; assay: CCK8 proliferation inhibition, HCCLM3; type: cell-based; conditions: 48 h
Method: as §1

[6] = test system: human ovarian cancer cells SKOV3; assay: CCK8 proliferation inhibition, SKOV3 (Example 5); type: cell-based; conditions: 48 h
Method: as §1

[7] = test system: human tongue squamous cell carcinoma CAL27 cells; type: cell-based; conditions: 48 h
Method: After incubation was continued for 48 h, add 100 μL of CCK8 solution to each well of the 96-well plate.

[8] = test system: subcutaneous transplanted tumor model of tongue squamous cell carcinoma cells CAL27; assay: CAL27 subcutaneous transplanted tumor model (Example 7); type: in vivo, BALB/c nude mice; conditions: 2.7 μM/kg, FIG. 10
Method: (1) A large number of human tongue squamous cell carcinoma CAL27 cells were cultured and digested with a 0.25% trypsin solution. After digestion was terminated, a cell suspension was centrifuged at 1000 rpm for 5 min, and the cells were resuspended in a serum-free DMEM culture medium and counted. The cell concentration was adjusted to 5×10^7 cells/mL.
(2) BALB/c nude mice (4-6 week old, female, weighing 14-16 g, adaptively fed in an SPF animal feeding room for 1 week) were inoculated with 100 μL of cell suspensions of corresponding groups under the left axilla, with an injection volume of 5×10^6 cells/mouse;
(3) After inoculation, the tumor growth at the inoculation sites of the nude mice was closely observed. On the 7th day after inoculation, white nodules appeared at the inoculation sites and could move subcutaneously upon touch. As the tumor tissues grew, hard tumor blocks gradually formed at the inoculation sites, and the average volume of the tumor tissues reached 80 mm^3 in about 14 days. The BALB/c nude mice were randomly divided into 3 groups (a normal saline group served as a blank control, and the dose of the micropeptide HMMW and the novel polypeptide HMMW15-51 was 2.7 μM/kg), with 10 mice in the blank group and 6 mice in each other group. […]
(4) The volume of the transplanted tumor was measured and recorded every three days. […]

[9] = test system: human acute lymphoblastic leukemia cells CEM/C1; assay: CCK8 proliferation inhibition, CEM/C1; type: cell-based; conditions: 48 h
Method: as §1

[10] = test system: human fibrosarcoma cells HT-1080; assay: CCK8 proliferation inhibition, HT-1080; type: cell-based; conditions: 48 h
Method: as §1

[11] = test system: human esophageal cancer cells TE-13; assay: CCK8 proliferation inhibition, TE-13; type: cell-based; conditions: 48 h
Method: as §1

In the case of “SVEAKMQSTSCSVRKSSTVTAWPAVVLLLSWGQRRGG [HMMW15-51]”, the “Inhibition (%)” value ([1]; 50 μM) is reported as 73.220 ± 3.443 %, the OD ([1]; 50 μM) is reported as 0.263 ± 0.034 and the “Inhibition (%)” value ([1]; 75 μM) is reported as 80.576 ± 3.787 %. The OD ([1]; 75 μM) was 0.191 ± 0.037, the “Inhibition (%)” value ([1]; 100 μM) was 83.525 ± 1.948 % and the OD ([1]; 100 μM) was 0.162 ± 0.019. For the same sequence, the “Inhibition (%)” value ([2]; 50 μM) was 66.508 ± 2.412 %, the OD ([2]; 50 μM) was 0.377 ± 0.044 and the “Inhibition (%)” value ([2]; 75 μM) was 74.508 ± 2.703 %. For the same sequence, the OD ([2]; 75 μM) was 0.328 ± 0.011, the “Inhibition (%)” value ([2]; 100 μM) was 83.661 ± 1.557 % and the OD ([2]; 100 μM) was 0.198 ± 0.026. The “Number of cell metastases” value ([3]; A549, 25 μmol/L) was 43 ± 19.22, the “Number of cell metastases” value ([3]; A549, 50 μmol/L) was 64 ± 32.44 and the “Inhibition (%)” value ([3]; 25 μmol/L) was 92.97*** %. The “Inhibition (%)” value ([3]; 50 μmol/L) was 89.62*** %, the “inhibitory effects on proliferation, comparison among the three peptides” value [4] was “no significant difference” and the “inhibitory effects on proliferation, comparison among the three peptides” value (liver cancer cells Hep3B) was “no significant difference”. The “Inhibition (%)” value ([5]; HCCLM3, 50 μM) was 69.863 ± 3.920 %, the OD ([5]; HCCLM3, 50 μM) was 0.301 ± 0.039 and the “Inhibition (%)” value ([5]; HCCLM3, 75 μM) was 79.820 ± 3.700 %. The OD ([5]; HCCLM3, 75 μM) was 0.201 ± 0.037, the “Inhibition (%)” value ([5]; HCCLM3, 100 μM) was 88.239 ± 2.474 % and the OD ([5]; HCCLM3, 100 μM) was 0.117 ± 0.025. For the same sequence, the “Inhibition (%)” value ([6]; SKOV3, 50 μM) was 66.508 ± 2.412 %, the OD ([6]; SKOV3, 50 μM) was 0.329 ± 0.024 and the “Inhibition (%)” value ([6]; SKOV3, 75 μM) was 74.508 ± 2.703 %. The OD ([6]; SKOV3, 75 μM) was 0.251 ± 0.027, the “Inhibition (%)” value ([6]; SKOV3, 100 μM) was 83.661 ± 1.557 % and the OD ([6]; SKOV3, 100 μM) was 0.161 ± 0.015. For the same sequence, the OD ([7]; Table 2, truncated fragments, CAL27, 80 μM) was 0.521 ± 0.087, the “inhibitory effect on proliferation of CAL27 cells compared with the HMMW treatment group” value ([7]; same dose (80 μM)) was “comparable” and the “in vivo activity compared with that of the HMMW” value [8] was “not significantly different”. For the same sequence, the “in vivo tumorigenicity of CAL27 cells compared with normal saline control” value [8] was “significantly inhibit”, the “Inhibition (%)” value ([9]; CEM/C1, 50 μM) was 50.849 ± 5.040 % and the OD ([9]; CEM/C1, 50 μM) was 0.579 ± 0.059. For the same sequence, the “Inhibition (%)” value ([9]; CEM/C1, 75 μM) was 62.344 ± 4.216 %, the OD ([9]; CEM/C1, 75 μM) was 0.443 ± 0.050 and the “Inhibition (%)” value ([9]; CEM/C1, 100 μM) was 78.709 ± 3.692 %. For the same sequence, the OD ([9]; CEM/C1, 100 μM) was 0.251 ± 0.043, the “Inhibition (%)” value ([10]; HT-1080, 50 μM) was 60.434 ± 3.432 % and the OD ([10]; HT-1080, 50 μM) was 0.365 ± 0.032. For the same sequence, the “Inhibition (%)” value ([10]; HT-1080, 75 μM) was 72.260 ± 3.852 %, the OD ([10]; HT-1080, 75 μM) was 0.256 ± 0.036 and the “Inhibition (%)” value ([10]; HT-1080, 100 μM) was 81.953 ± 2.407 %. The OD ([10]; HT-1080, 100 μM) was 0.166 ± 0.022, the “Inhibition (%)” value ([11]; TE-13, 50 μM) was 63.486 ± 3.547 % and the OD ([11]; TE-13, 50 μM) was 0.302 ± 0.029. The “Inhibition (%)” value ([11]; TE-13, 75 μM) was 75.242 ± 1.579 %, the OD ([11]; TE-13, 75 μM) was 0.205 ± 0.013 and the “Inhibition (%)” value ([11]; TE-13, 100 μM) was 84.018 ± 1.451 %. The OD ([11]; TE-13, 100 μM) was 0.132 ± 0.012.

— US20260167673A1, “NOVEL POLYPEPTIDE, POLYPEPTIDE DERIVATIVE AND USE THEREOF” (NANJING ANJI BIOTECHNOLOGY CO., LTD., priority 2023, published 2026)
